No constants are given. Whether binding was seen depends on the method and setting. Sequences can lack the tags named with a protein.
Biological target: T1, BD-EXO70A1 (Arabidopsis thaliana) (UniProt Q9LZD3)
T1 sequence: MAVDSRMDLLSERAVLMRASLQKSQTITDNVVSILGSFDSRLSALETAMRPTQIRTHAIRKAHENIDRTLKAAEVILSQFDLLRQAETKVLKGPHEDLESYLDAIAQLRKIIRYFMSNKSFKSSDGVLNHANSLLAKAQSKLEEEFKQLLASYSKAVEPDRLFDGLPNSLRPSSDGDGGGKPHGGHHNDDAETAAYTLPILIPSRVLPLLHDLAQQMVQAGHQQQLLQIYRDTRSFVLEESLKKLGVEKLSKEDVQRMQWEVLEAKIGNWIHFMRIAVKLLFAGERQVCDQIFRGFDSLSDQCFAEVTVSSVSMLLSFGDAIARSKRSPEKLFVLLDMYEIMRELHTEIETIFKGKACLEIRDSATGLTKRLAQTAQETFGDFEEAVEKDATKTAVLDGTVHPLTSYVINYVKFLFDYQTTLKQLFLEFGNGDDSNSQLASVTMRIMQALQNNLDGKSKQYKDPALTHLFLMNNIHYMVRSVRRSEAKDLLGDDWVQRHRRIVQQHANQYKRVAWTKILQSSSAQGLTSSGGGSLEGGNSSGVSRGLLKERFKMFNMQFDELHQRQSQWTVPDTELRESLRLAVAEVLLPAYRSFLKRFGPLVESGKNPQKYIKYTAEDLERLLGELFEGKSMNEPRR
Assay: two-hybrid

By UniProt entry, the sequences of proteins in these tests, tags left out. Where a name states a change or a piece, a line headed by the entry shows the natural chain unless it says otherwise.
UniProt Q9ZSD4: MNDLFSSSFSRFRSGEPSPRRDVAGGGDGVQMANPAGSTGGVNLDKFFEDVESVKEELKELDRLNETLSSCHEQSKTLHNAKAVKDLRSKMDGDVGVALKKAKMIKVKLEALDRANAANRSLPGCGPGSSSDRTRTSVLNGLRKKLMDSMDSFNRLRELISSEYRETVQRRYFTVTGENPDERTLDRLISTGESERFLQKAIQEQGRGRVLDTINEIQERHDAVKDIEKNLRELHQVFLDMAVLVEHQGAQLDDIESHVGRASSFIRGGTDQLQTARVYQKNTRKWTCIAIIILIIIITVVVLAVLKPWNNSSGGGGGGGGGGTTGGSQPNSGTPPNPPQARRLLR

## AD-SYP121ΔC (from UniProt Q9ZSD4) (domain or fragment)
  binding: no binding
